Measured values reported in US20130230527A1 (University of California, published 2013).
No constants are given. Whether binding was seen depends on the method and setting. Some binding calls cover weakened binding; strength is not graded here.

Tests used:
[1] = target: T1, mouse epithelial membrane protein-2 (EMP2) on cells (mouse) (UniProt O88662); assay: FACS on NIH 3T3 cells
T1 sequence (looked up): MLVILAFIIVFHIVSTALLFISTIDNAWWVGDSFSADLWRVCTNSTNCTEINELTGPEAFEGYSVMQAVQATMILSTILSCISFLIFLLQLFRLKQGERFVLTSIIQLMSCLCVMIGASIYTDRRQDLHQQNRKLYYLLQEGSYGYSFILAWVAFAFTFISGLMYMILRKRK

[2] = target: T2, human epithelial membrane protein-2 (EMP2) on cells (human) (UniProt P54851); assay: FACS on cells
T2 sequence (looked up): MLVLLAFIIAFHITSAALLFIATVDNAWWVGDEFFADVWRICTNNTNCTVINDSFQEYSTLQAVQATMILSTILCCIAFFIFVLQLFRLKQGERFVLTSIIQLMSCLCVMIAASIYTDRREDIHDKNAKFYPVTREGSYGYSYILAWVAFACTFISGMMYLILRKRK

[3] = target: T1, mouse epithelial membrane protein-2 (EMP2) on cells (mouse); assay: FACS on cells
[4] = target: T2, human epithelial membrane protein-2 (EMP2) on cells (human); assay: flow cytometry on cells
[5] = target: T2, human epithelial membrane protein-2 (EMP2) on cells (human); assay: statement in the results; method not given
[6] = target: T1, mouse epithelial membrane protein-2 (EMP2) on cells (mouse); assay: statement in the results; method not given
[7] = target: T2, human epithelial membrane protein-2 (EMP2) on cells (human); assay: FACS on RL95-2 and Ishikawa cells
[8] = target: T3, biotin conjugated 24 amino acid peptide of the extracellular loop of mouse EMP2 (mouse); assay: ELISA on peptide-coated plates
T3 sequence (peptide, biotin conjugated (position not stated)): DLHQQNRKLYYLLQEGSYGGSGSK

[9] = target: T3, biotin conjugated 24 amino acid peptide of the extracellular loop of mouse EMP2 (mouse); assay: ELISA on mEMP2 peptide, diabody format
[10] = target: T1, mouse epithelial membrane protein-2 (EMP2) on cells (mouse); assay: flow cytometry on cells
[11] = target: T3, biotin conjugated 24 amino acid peptide of the extracellular loop of mouse EMP2 (mouse); assay: ELISA against the specific peptide used to select the antibody

Measured: binding

B1: anti-EMP2 diabody KS49 (other)
chain: MAQVQLVQSGGGVVQPGRSLRLSCAASGFTFSSYAMHWVRQAPGKGLEWVAVISYDGSNKYYADSVKGRFTISRDNSKNTLYLQMNSLRAEDTAVYYCARDRRGRKSAGIDYWGQGTLVTVSSSGGGSDIQMTQSPSSLSASVGDRVTITCQASQDISNYLNWYQQKPGKAPKLLIYAASSLQSGVPSRFSGSGSGTDFTLTISSLQPEDFATYYCLQDYNGWTFGQGTKVDIKRAAAEQKLISEEDLNGAAHHHHHH
notes: Diabody: bivalent dimer of a VH-5 aa linker-VL chain with c-Myc and 6 His tags, made in E. coli TG1; Selected against the hEMP2 peptide; also called K49; anti-hEMP2 diabody
not listed: [8] | [9] | [10] | [11]
binds: all other assays above

B2: anti-EMP2 diabody KS83 (other)
chain: MAQVQLVESGGGLVQPGGSLRLSCAASGFTFSSYAMHWVRQAPGKGLEWVAVISYDGSNKYYADSVKGRFTISRDNSKNTLYLQMNSLRAEDTAVYYCARTVGATGAFDIWGQGTMVTVSSSSGGGSDIVMTQSPSTVSASVGDRVIIPCRASQSIGKWLAWYQQKPGKAPKLLIYKASSLEGWVPSRFSGSGSGTEFSLTISSLQPDDSATYVCQQSHNFPPTFGGGTKLEIKRAAAEQKLISEEDLNGAAHHHHHH
notes: Diabody: bivalent dimer of a VH-5 aa linker-VL chain with c-Myc and 6 His tags; Selected against the mEMP2 peptide; also called K83; diabody 83
not listed: [4]
binds: all other assays above
